Laboratory results: patent US20250262294A1

Tests used:
[1] = molecular target: chicken CD83 ectodomain (recombinant receptor protein from S2 cells) (chicken); experiment: ELISA on chicken CD83 receptor protein
[2] = molecular target: chicken CD83 ectodomain (recombinant receptor protein from S2 cells) (chicken); experiment: ELISA on chicken CD83 receptor protein, unpurified culture medium
[3] = molecular target: chicken CD83 ectodomain (recombinant receptor protein from S2 cells) (chicken); experiment: ELISA
[4] = molecular target: chicken CD83 ectodomain (recombinant receptor protein from S2 cells) (chicken); experiment: ELISA on chicken CD83 receptor protein, unpurified protein

Measured: binding

B1: IG10 scFv-CD83 scFv bispecific scFv antibody (bispecific antibody)
chain: MDILMTQSPSSMSVSLGDTVIITCHASQGISSNIGWLQQKPGKSFKGLIYHATNLEDGVPSRFSGGGSGADYSLTISSLESEDFADYYCVQYGQFPFTFGSGTKLEIKGGGGSGGGGSGGGGSEVQLQQSVAELVRPGASVKLSCTASGFNIKNTYMHWVKQRPEQGLEWIGRIDPANGNTRYAPKFQGKATITADTSSNTAYLQLSSLTSEDTAIYYCARYYFGPDYWGQGTTLTVSSGGGGSGGGGSGGGGSGGGGSDIVMTQSPSSLAVSVGQKVTMSCTSSQVLLHSPNQKNYLAWYQQKPGQSPKLLVYFASTRESGVPDRFTGSGSGTDFTLTISSVQAEDLAVYYCQQHYSTPLTFGAGTKLELKGGGGSGGGGSGGGGSEVQLQQSGPELVKPGASVKISCKASGYTFTDYYINWVKQSHGKSLEWIGDINPTNGDSTYSQKFKGKATLTVDKSSSTAYMELRSLTSEVSAVYYCARDYAMDYWGQGTSVTVSSEPEA
binds: all assays above

No constants are given. Whether binding was seen depends on the method and setting. Binding calls can cover weak binding; strength is not graded here.
